Test results reported in US20040023994A1 (priority 2002, published 2004).
Read-outs that look alike come from different tables or passages of the source. Some results were stated once for a whole list of compounds, not compound by compound. For at least one compound, name, drawing or mass did not settle the structure.

Tested on: all the cell lines included in the screen
Experimental: cis-AVTP and trans-AVTG were tested in National Cancer Institute's (NCI) 60 cell lines derived from leukemia, melanoma, lung, kidney cancers. Most chemotherapeutic agents currently nd 6-TG, have been tested in this screen and a database he National Institutes of Health. The NCI assigned s-AVTP, and number NSC-722289 to trans-AVTG. tocol used for the cytotoxicity assessment in the NCI e from the National Institutes of Health. Briefly, tumor ma, lung, colon, brain, ovary, breast, prostate, and um containing 5% fetal bovine serum and 2 mM L-glutamine re plated in a 100 μL volume into 96 well microtiter 37° C. in humidified atmosphere supplemented with 5% ach cell line were fixed with trichloroacetic acid for f drug addition (Tz). The drugs, as 400-fold concentrated uted to twice the final maximum test concentration with entamicin. Additional four 10-fold dilutions were made us control. Aliquots (100 μl) of the drug solutions were 100 μl of medium, resulting in the required final drug the plates were incubated at 37° C. in humidified for additional 48 h. The assay was terminated by the w/v) trichloroacetic acid for adherent and suspension minutes at 4° C. The supernatant was discarded, the and air dried. A 100 μl aliquot of 0.4% (w/v) sulforhodamine B (SRB) solution in 1% acetic acid was added to each well, and the plates incubated for 10 minutes at room temperature. After staining, unbound dye was removed by washing five times with 1% acetic acid and the plates air dried. Bound stain was solubilized with 10 mM trizma base, and the absorbance read on a plate reader at a wavelength of 515 nm.
By using time zero (Tz), control growth (C), and test growth in the presence of drug at the five concentration levels (Ti), the percentage growth was calculated at each of the drug concentration levels. Percentage growth inhibition was calculated as:
[(Ti−Tz)/(C−Tz)]×100 for concentrations for which Ti>/=Tz
[(Ti−Tz)/Tz]×100 for concentrations for which Ti<Tz.
Three dose response parameters were calculated for each experimental agent. […] The TGI, the drug concentration resulting in total growth inhibition was calculated from Ti=Tz. The LC50 (the concentration of drug resulting in a 50% reduction in the measured protein at the end of the drug treatment as compared to that at the beginning) indicating a net loss of cells following treatment was calculated from [(Ti−Tz)/Tz]×100=−50. Values were calculated for each of these three parameters if the level of activity is reached; however, if the effect was not reached or was exceeded, the value for that parameter is expressed as greater or less than the maximum or minimum concentration tested.

[1] = the 6 cell lines especially sensitive toward trans-AVTG (IGR-OV1, OVCAR-3, COLO 205, HCT-116, CAKI-1, NCI-H5222)

Compound | TGI (the 16 cell lines especially sensitive toward cis-AVTP) [µM] | CC50 (read-out: LC50, the 6 cell lines especially sensitive toward trans-AVTG (IGR-OV1, OVCAR-3, COLO 205, HCT-116, CAKI-1, NCI-H5222)) [µM] | GI50 [1] [µM] | TGI [1] [µM]
CC(=O)C=CSc1ncnc2nc[nH]c12 [cis-AVTP, 6-(2-acetylvinylthio) purine] | < 5 | – | – | –
CC(=O)C=CSc1nc(N)nc2nc[nH]c12 [trans-AVTG, 6-(2-acetylvinylthio) guanine] | – | < 15 | < 2 | < 5
